Source: paper PMC12547303
Where a chain is given by its changes, count along the chain named. Numbers in names are those of the source. Results are given in words; binding and its absence hold for the method and conditions named. Binding seen in cells or lysates may run through a third protein. Some entries that bind do so weakly or less than the wild type. Tags and fused reporters may be left off the sequences shown.

T1: GST fusion of the CNNM2 CNBH domain (582–875) (mouse) (UniProt Q3TWN3)
T1 sequence: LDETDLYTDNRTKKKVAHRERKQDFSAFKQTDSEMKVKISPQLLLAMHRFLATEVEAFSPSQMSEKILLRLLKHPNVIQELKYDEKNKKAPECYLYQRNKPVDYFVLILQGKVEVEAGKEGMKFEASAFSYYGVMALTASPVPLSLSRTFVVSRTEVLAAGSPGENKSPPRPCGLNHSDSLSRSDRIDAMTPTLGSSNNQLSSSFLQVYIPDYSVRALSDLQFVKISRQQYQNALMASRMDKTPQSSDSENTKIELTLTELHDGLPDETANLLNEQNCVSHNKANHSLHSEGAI

B1: TRPM7 COOH-terminal fragment fused to mfGFP, M7-CTERM (1120–1862) (domain or fragment, UniProt Q923J1 1120-1862)
chain: MAYHEKPVLPPPLIILSHIVSLFCCVCKRRKKDKTSDGPKLFLTEEDQKKLHDFEEQCVEMYFDEKDDKFNSGSEERIRVTFERVEQMSIQIKEVGDRVNYIKRSLQSLDSQIGHLQDLSALTVDTLKTLTAQKASEASKVHNEITRELSISKHLAQNLIDDVPVRPLWKKPSAVNTLSSSLPQGDRESNNPFLCNIFMKDEKDPQYNLFGQDLPVIPQRKEFNIPEAGSSCGALFPSAVSPPELRQRRHGVEMLKIFNKNQKLGSSPNSSPHMSSPPTKFSVSTPSQPSCKSHLESTTKDQEPIFYKAAEGDNIEFGAFVGHRDSMDLQRFKETSNKIRELLSNDTPENTLKHVGAAGYSECCKTSTSLHSVQAESCSRRASTEDSPEVDSKAALLPDWLRDRPSNREMPSEGGTLNGLASPFKPVLDTNYYYSAVERNNLMRLSQSIPFVPVPPRGEPVTVYRLEESSPSILNNSMSSWSQLGLCAKIEFLSKEEMGGGLRRAVKVLCTWSEHDILKSGHLYIIKSFLPEVINTWSSIYKEDTVLHLCLREIQQQRAAQKLTFAFNQMKPKSIPYSPRFLEVFLLYCHSAGQWFAVEECMTGEFRKYNNNNGDEIIPTNTLEEIMLAFSHWTYEYTRGELLVLDLQGVGENLTDPSVIKAEEKRSCDMVFGPANLGEDAIKNFRAKHHCNSCCRKLKLPDLKRNDYTPDKIIFPQDESSDLNLQSGNSTKESEATNSVRLM
B2: kinase-inactive (K1646R) TRPM7 COOH-terminal fragment fused to mfGFP, M7-CTERM-KI (1120–1862) (domain or fragment, UniProt Q923J1 1120-1862)
chain: B1 chain with K527R
B3: TRPM7 ST rich region with catalytic kinase domain fused to mfGFP, M7-ST-KIN (1288–1862) (domain or fragment, UniProt Q923J1 1288-1862)
chain: WKKPSAVNTLSSSLPQGDRESNNPFLCNIFMKDEKDPQYNLFGQDLPVIPQRKEFNIPEAGSSCGALFPSAVSPPELRQRRHGVEMLKIFNKNQKLGSSPNSSPHMSSPPTKFSVSTPSQPSCKSHLESTTKDQEPIFYKAAEGDNIEFGAFVGHRDSMDLQRFKETSNKIRELLSNDTPENTLKHVGAAGYSECCKTSTSLHSVQAESCSRRASTEDSPEVDSKAALLPDWLRDRPSNREMPSEGGTLNGLASPFKPVLDTNYYYSAVERNNLMRLSQSIPFVPVPPRGEPVTVYRLEESSPSILNNSMSSWSQLGLCAKIEFLSKEEMGGGLRRAVKVLCTWSEHDILKSGHLYIIKSFLPEVINTWSSIYKEDTVLHLCLREIQQQRAAQKLTFAFNQMKPKSIPYSPRFLEVFLLYCHSAGQWFAVEECMTGEFRKYNNNNGDEIIPTNTLEEIMLAFSHWTYEYTRGELLVLDLQGVGENLTDPSVIKAEEKRSCDMVFGPANLGEDAIKNFRAKHHCNSCCRKLKLPDLKRNDYTPDKIIFPQDESSDLNLQSGNSTKESEATNSVRLM
B4: TRPM7 ST rich region fused to mfGFP, M7-ST (1288–1594) (domain or fragment, UniProt Q923J1 1288-1594)
chain: WKKPSAVNTLSSSLPQGDRESNNPFLCNIFMKDEKDPQYNLFGQDLPVIPQRKEFNIPEAGSSCGALFPSAVSPPELRQRRHGVEMLKIFNKNQKLGSSPNSSPHMSSPPTKFSVSTPSQPSCKSHLESTTKDQEPIFYKAAEGDNIEFGAFVGHRDSMDLQRFKETSNKIRELLSNDTPENTLKHVGAAGYSECCKTSTSLHSVQAESCSRRASTEDSPEVDSKAALLPDWLRDRPSNREMPSEGGTLNGLASPFKPVLDTNYYYSAVERNNLMRLSQSIPFVPVPPRGEPVTVYRLEESSPSILN
B5: TRPM7 catalytic kinase domain fused to mfGFP, M7-KIN (1510–1862) (domain or fragment, UniProt Q923J1 1510-1862)
chain: DSKAALLPDWLRDRPSNREMPSEGGTLNGLASPFKPVLDTNYYYSAVERNNLMRLSQSIPFVPVPPRGEPVTVYRLEESSPSILNNSMSSWSQLGLCAKIEFLSKEEMGGGLRRAVKVLCTWSEHDILKSGHLYIIKSFLPEVINTWSSIYKEDTVLHLCLREIQQQRAAQKLTFAFNQMKPKSIPYSPRFLEVFLLYCHSAGQWFAVEECMTGEFRKYNNNNGDEIIPTNTLEEIMLAFSHWTYEYTRGELLVLDLQGVGENLTDPSVIKAEEKRSCDMVFGPANLGEDAIKNFRAKHHCNSCCRKLKLPDLKRNDYTPDKIIFPQDESSDLNLQSGNSTKESEATNSVRLM
B6: FLAG-tagged CNNM2 lacking the CBS-pair domain, CNNM2-ΔCBS(469–578) (protein, UniProt Q3TWN3)
chain: MIGCGACEPEVKMAGGQAAAALPTWKMAARRSLSARGRGVLQAAAGRLLPLLLLSCCWGAGGCTAAGENEETVIIGLRLEDTNDVSFMEGGALRVSERTRVKLRVYGQNINNETWSRIAFTEHERRRHTPSERGLGGPAPPEPDSGPQRCGIRTSDIIILPHIILNRRTSGIIEIEIKPLRKMEKSKSYYLCTSLSTPALGAGGSGSASGTVGGKGGAGVAGLPPPPWAETTWIYHDGEDTKMIVGEEKKFLLPFWLQVIFISLLLCLSGMFSGLNLGLMALDPMELRIVQNCGTEKEKNYAKRIEPVRRQGNYLLCSLLLGNVLVNTTLTILLDDIAGSGLVAVVVSTIGIVIFGEIVPQAICSRHGLAVGANTIFLTKFFMMMTFPASYPVSKLLDCVLGQEIGTVYNREKLLEMLRVTDPYNDLVKEELNIIQGALELRTKTVEDVMTPLRDCFMITGEAILDFNSEILDETDLYTDNRTKKKVAHRERKQDFSAFKQTDSEMKVKISPQLLLAMHRFLATEVEAFSPSQMSEKILLRLLKHPNVIQELKYDEKNKKAPECYLYQRNKPVDYFVLILQGKVEVEAGKEGMKFEASAFSYYGVMALTASPVPLSLSRTFVVSRTEVLAAGSPGENKSPPRPCGLNHSDSLSRSDRIDAMTPTLGSSNNQLSSSFLQVYIPDYSVRALSDLQFVKISRQQYQNALMASRMDKTPQSSDSENTKIELTLTELHDGLPDETANLLNEQNCVSHNKANHSLHSEGAI
B7: FLAG-tagged CNNM2 lacking the CNBH domain, CNNM2-ΔCNBH (1–582) (domain or fragment, UniProt Q3TWN3 1-582)
chain: MIGCGACEPEVKMAGGQAAAALPTWKMAARRSLSARGRGVLQAAAGRLLPLLLLSCCWGAGGCTAAGENEETVIIGLRLEDTNDVSFMEGGALRVSERTRVKLRVYGQNINNETWSRIAFTEHERRRHTPSERGLGGPAPPEPDSGPQRCGIRTSDIIILPHIILNRRTSGIIEIEIKPLRKMEKSKSYYLCTSLSTPALGAGGSGSASGTVGGKGGAGVAGLPPPPWAETTWIYHDGEDTKMIVGEEKKFLLPFWLQVIFISLLLCLSGMFSGLNLGLMALDPMELRIVQNCGTEKEKNYAKRIEPVRRQGNYLLCSLLLGNVLVNTTLTILLDDIAGSGLVAVVVSTIGIVIFGEIVPQAICSRHGLAVGANTIFLTKFFMMMTFPASYPVSKLLDCVLGQEIGTVYNREKLLEMLRVTDPYNDLVKEELNIIQGALELRTKTVEDVMTPLRDCFMITGEAILDFNTMSEIMESGYTRIPVFEGERSNIVDLLFVKDLAFVDPDDCTPLKTITKFYNHPLHFVFNDTKLDAMLEEFKKGKSHLAIVQRVNNEGEGDPFYEVLGIVTLEDVIEEIIKSEIL
B8: FLAG-tagged CNNM2 NH2-terminal domain, CNNM2-NTERM (1–402) (domain or fragment, UniProt Q3TWN3 1-402)
chain: MIGCGACEPEVKMAGGQAAAALPTWKMAARRSLSARGRGVLQAAAGRLLPLLLLSCCWGAGGCTAAGENEETVIIGLRLEDTNDVSFMEGGALRVSERTRVKLRVYGQNINNETWSRIAFTEHERRRHTPSERGLGGPAPPEPDSGPQRCGIRTSDIIILPHIILNRRTSGIIEIEIKPLRKMEKSKSYYLCTSLSTPALGAGGSGSASGTVGGKGGAGVAGLPPPPWAETTWIYHDGEDTKMIVGEEKKFLLPFWLQVIFISLLLCLSGMFSGLNLGLMALDPMELRIVQNCGTEKEKNYAKRIEPVRRQGNYLLCSLLLGNVLVNTTLTILLDDIAGSGLVAVVVSTIGIVIFGEIVPQAICSRHGLAVGANTIFLTKFFMMMTFPASYPVSKLLDCVLG
B9: TRPM7 NH2-terminal fragment M7-NTERM (1–757) (domain or fragment, UniProt Q923J1 1-757)
chain: MSQKSWIESTLTKRECVYIIPSSKDPHRCLPGCQICQQLVRCFCGRLVKQHACFTASLAMKYSDVKLGEHFNQAIEEWSVEKHTEQSPTDAYGVINFQGGSHSYRAKYVRLSYDTKPEIILQLLLKEWQMELPKLVISVHGGMQKFELHPRIKQLLGKGLIKAAVTTGAWILTGGVNTGVAKHVGDALKEHASRSSRKICTIGIAPWGVIENRNDLVGRDVVAPYQTLLNPLSKLNVLNNLHSHFILVDDGTVGKYGAEVRLRRELEKTINQQRIHARIGQGVPVVALIFEGGPNVILTVLEYLQESPPVPVVVCEGTGRAADLLAYIHKQTEEGGNLPDAAEPDIISTIKKTFNFGQSEAVHLFQTMMECMKKKELITVFHIGSEDHQDIDVAILTALLKGTNASAFDQLILTLAWDRVDIAKNHVFVYGQQWLVGSLEQAMLDALVMDRVSFVKLLIENGVSMHKFLTIPRLEELYNTKQGPTNPMLFHLIRDVKQGNLPPGYKITLIDIGLVIEYLMGGTYRCTYTRKRFRLIYNSLGGNNRRSGRNTSSSTPQLRKSHETFGNRADKKEKMRHNHFIKTAQPYRPKMDASMEEGKKKRTKDEIVDIDDPETKRFPYPLNELLIWACLMKRQVMARFLWQHGEESMAKALVACKIYRSMAYEAKQSDLVDDTSEELKQYSNDFGQLAVELLEQSFRQDETMAMKLLTYELKNWSNSTCLKLAVSSRLRPFVAHTCTQMLLSDMWMGRLNMRKNS

Tests used:
[1] = target: T1, GST fusion of the CNNM2 CNBH domain (582–875) (mouse); assay: pull-down; GST fusion proteins bound to glutathione agarose beads incubated with cleared lysates of HEK-293T cells expressing TRPM7 fragments (overnight at 4 °C by the methods, 4 h by the legend); washed with PBS 0.1% Triton X-100; Western blot; 1 mM Mg·ATP in the lysate in some samples with …; only the target purified
[2] = target: GST fusion of the CNNM2 CBS domain (495–582) (mouse) (UniProt Q3TWN3); assay: as above
[3] = target: HA-tagged TRPM7 (murine) (mouse) (UniProt Q923J1); assay: co-IP; HEK-293T co-transfected for 48 h; HA-TRPM7 immunoprecipitated with anti-HA magnetic beads from mild lysis buffer overnight at 4 °C, washed with PBS 0.1% Triton X-100; FLAG-tagged CNNM2 constructs detected by Western blot; media with 20 mM MgCl2 (Fig. 1B); 1 mM Mg·ATP in the lysis buffer in some samples with SUMO-CBS

Row | Binder | binding [1] | binding [2] | binding [3]
1 | B1 | binds | binds | –
2 | B2 | binds | binds | –
3 | B3 | binds | binds | –
4 | B4 | binds | binds | –
5 | B5 | binds | no binding | –
6 | B6 | – | – | binds
7 | B7 | – | – | binds
8 | B8 | – | – | binds
9 | B9 | no binding | binds | –
